Source: the supplement of paper PMC10849652
Some of the results follow.

Chains of the proteins cited; added tags and fusions are not shown. Lines headed by an entry give the natural chain unless they say otherwise; changes in a name come on top.
UniProt O14713: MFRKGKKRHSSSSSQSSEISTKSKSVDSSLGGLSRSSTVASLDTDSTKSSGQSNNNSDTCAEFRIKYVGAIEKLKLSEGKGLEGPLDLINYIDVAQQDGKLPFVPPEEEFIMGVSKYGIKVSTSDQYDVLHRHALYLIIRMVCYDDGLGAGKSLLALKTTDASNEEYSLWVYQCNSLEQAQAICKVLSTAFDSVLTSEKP
UniProt P53990, whole entry, looked up: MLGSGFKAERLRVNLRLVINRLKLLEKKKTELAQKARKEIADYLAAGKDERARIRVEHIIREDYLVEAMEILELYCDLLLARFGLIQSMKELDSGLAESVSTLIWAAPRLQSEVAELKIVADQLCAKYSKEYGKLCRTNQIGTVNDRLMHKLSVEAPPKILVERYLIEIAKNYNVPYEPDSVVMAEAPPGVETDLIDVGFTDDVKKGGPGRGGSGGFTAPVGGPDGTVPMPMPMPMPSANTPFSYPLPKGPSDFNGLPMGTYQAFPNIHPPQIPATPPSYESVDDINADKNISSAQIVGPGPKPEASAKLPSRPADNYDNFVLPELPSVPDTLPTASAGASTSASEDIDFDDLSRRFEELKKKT
UniProt O00180: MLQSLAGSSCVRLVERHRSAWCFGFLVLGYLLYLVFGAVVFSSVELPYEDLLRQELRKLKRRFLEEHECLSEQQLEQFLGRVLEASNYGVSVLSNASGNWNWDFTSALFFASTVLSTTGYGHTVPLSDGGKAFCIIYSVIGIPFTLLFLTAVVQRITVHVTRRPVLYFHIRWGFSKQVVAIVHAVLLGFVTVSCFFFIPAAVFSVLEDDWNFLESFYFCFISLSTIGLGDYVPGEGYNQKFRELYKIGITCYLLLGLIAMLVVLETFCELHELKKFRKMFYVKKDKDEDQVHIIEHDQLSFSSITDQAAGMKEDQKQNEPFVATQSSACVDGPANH
UniProt P06756, whole entry, looked up: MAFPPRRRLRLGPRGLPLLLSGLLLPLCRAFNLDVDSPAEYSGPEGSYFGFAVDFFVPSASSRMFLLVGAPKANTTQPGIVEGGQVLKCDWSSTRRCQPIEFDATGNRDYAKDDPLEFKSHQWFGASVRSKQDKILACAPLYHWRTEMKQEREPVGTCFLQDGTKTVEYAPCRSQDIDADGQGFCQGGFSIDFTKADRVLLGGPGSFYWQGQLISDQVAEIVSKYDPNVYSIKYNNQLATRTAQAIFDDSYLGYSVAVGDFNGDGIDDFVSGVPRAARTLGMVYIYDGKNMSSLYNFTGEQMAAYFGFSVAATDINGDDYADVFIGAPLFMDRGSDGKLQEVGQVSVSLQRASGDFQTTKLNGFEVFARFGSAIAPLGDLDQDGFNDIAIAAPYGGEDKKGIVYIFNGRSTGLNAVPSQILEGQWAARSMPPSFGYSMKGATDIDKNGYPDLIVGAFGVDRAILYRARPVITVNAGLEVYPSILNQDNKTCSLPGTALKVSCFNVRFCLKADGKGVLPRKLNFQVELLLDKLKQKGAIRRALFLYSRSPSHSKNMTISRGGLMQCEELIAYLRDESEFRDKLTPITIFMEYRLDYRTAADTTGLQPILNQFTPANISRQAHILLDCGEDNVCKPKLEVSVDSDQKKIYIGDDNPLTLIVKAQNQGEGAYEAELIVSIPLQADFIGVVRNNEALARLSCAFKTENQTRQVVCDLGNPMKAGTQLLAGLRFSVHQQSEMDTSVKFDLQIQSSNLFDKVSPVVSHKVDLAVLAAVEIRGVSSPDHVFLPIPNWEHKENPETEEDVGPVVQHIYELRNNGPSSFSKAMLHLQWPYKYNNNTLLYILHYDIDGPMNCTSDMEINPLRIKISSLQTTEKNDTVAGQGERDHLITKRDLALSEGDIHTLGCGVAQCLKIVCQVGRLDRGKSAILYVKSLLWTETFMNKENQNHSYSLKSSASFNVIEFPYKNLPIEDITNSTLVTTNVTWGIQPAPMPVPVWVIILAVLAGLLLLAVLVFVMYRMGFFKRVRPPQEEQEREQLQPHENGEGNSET
UniProt Q9Y2K7: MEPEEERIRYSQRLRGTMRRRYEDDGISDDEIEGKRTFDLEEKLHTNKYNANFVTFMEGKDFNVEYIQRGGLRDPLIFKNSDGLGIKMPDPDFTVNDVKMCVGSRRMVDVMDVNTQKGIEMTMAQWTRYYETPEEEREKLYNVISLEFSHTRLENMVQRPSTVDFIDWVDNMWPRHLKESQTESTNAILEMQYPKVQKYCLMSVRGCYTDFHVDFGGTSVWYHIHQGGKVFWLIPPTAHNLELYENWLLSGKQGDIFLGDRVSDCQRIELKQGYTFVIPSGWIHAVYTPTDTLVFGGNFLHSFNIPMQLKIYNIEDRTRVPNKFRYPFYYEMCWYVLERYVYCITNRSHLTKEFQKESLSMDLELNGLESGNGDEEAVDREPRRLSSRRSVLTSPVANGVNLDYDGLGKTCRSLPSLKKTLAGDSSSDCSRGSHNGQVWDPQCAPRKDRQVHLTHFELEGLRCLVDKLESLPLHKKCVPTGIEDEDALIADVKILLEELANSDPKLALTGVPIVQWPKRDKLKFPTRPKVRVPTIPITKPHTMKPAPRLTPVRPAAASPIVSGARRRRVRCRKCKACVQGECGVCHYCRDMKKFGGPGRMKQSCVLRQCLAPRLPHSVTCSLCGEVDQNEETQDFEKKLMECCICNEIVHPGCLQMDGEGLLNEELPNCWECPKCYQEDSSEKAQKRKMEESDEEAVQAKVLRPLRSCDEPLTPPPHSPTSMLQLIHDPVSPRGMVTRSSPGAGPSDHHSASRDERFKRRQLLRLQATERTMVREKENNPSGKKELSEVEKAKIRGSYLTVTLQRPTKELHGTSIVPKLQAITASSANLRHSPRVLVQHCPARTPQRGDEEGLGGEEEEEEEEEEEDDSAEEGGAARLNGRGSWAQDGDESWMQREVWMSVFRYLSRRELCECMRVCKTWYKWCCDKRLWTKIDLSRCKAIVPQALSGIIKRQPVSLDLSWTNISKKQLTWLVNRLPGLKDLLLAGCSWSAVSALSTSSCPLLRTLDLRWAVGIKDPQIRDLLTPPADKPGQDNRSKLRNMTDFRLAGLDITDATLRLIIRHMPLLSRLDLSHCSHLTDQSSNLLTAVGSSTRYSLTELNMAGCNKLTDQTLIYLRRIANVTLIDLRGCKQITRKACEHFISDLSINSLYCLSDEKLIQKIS
UniProt Q8N9B5, whole entry, looked up: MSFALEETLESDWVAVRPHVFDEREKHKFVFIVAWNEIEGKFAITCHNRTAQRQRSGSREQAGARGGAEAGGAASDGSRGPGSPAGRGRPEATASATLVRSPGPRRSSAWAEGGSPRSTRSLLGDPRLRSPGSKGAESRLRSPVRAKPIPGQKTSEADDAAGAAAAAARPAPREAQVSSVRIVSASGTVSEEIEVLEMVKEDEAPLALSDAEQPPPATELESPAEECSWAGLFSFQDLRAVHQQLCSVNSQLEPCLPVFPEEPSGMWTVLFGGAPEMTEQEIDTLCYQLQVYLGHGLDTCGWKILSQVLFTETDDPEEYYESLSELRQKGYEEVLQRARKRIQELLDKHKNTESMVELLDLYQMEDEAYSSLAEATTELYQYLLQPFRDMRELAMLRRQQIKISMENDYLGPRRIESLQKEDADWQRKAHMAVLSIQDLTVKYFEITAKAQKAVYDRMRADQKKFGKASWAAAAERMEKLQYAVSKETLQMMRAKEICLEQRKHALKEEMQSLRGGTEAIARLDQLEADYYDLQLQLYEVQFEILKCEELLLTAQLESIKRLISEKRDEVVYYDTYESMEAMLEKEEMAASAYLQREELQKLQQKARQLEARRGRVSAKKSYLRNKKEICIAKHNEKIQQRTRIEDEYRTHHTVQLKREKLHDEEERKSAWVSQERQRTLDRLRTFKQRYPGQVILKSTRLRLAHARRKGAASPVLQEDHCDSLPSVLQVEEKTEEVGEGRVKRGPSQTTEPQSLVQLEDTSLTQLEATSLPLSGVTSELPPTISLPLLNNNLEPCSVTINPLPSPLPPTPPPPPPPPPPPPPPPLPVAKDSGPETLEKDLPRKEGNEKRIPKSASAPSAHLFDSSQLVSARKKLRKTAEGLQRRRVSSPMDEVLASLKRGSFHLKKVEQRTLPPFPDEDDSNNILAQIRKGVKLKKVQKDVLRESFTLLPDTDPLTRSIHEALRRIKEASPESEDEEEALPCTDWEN
UniProt Q674X7: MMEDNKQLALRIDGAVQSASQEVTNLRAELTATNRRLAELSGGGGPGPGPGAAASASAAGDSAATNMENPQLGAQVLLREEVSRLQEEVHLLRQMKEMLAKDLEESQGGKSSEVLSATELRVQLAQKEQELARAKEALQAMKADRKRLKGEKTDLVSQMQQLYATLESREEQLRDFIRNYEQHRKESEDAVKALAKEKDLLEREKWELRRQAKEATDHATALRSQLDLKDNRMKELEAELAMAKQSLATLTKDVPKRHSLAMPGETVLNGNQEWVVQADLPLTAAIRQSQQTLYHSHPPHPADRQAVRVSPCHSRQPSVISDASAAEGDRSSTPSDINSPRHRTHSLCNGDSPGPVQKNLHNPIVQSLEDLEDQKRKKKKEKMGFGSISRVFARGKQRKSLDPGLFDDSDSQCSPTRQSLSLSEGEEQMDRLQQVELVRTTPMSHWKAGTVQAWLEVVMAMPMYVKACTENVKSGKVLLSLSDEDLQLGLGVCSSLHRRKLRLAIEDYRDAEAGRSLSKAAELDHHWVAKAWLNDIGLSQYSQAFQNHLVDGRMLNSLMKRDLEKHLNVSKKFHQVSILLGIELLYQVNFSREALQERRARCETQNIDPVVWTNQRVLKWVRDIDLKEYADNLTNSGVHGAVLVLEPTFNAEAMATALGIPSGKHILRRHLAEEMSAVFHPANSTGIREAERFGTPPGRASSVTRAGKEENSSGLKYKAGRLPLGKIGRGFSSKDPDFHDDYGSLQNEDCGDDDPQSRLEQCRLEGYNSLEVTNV
UniProt Q9UKP3: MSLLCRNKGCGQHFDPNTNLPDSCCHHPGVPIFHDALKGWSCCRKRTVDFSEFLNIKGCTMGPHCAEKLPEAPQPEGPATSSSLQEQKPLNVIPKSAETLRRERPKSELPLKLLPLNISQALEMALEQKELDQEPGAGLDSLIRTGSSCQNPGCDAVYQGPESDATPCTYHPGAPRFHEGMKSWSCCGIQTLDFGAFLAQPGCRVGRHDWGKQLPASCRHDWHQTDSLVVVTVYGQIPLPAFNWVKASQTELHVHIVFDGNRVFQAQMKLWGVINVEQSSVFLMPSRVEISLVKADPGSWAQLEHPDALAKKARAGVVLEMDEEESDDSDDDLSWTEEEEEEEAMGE

How the values were obtained:
Experiment in all cases: log2 fold change, soluble protein after heating vs DMSO (PISA); higher = thermal stabilisation; K562 lysate, 10 uM; active = over 0.2 and 3.5 SD of the protein, either way, in both replicates (recomputed)
[1] = compound: NCC(=O)Nc1ccc(-n2nc(C(F)(F)F)cc2-c2ccc3c(ccc4ccccc43)c2)cc1
How it was run: (§1)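 Thermal stability, expressed as log-two fold change relative to solvent controls, is given from duplicates. Crude K562 extract in PBS pH 7.4 with 1 mM MgCl2, at 1 mg/mL protein, was treated with 10 μM compound for 30 min and heated in aliquots for 3 min across 48°C-58°C. After pooling, adjustment to 0.5% NP-40 at 4°C and centrifugation at 21,000xg for 90 min, supernatant protein was measured by TMTpro 16plex LC-MS/MS with channel sums equalised.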

vorinostat = compound: O=C(CCCCCCC(=O)Nc1ccccc1)NO [vorinostat]
How it was run: as §1

silmitasertib = compound: O=C(O)c1ccc2c(c1)nc(Nc1cccc(Cl)c1)c1ccncc12 [silmitasertib]
How it was run: as §1

entospletinib = compound: c1cn2cc(-c3ccc4cn[nH]c4c3)nc(Nc3ccc(N4CCOCC4)cc3)c2n1 [entospletinib]
How it was run: as §1

[2] = compound: O=C1NC(=O)C(c2cnc3ccccn23)=C1c1cn2c3c(cc(F)cc13)CN(C(=O)N1CCCCC1)CC2
How it was run: as §1

Measured: log2 fold change

ITGB1BP1 (UniProt O14713)
inactive: [1] 0.038 | vorinostat 0.052 | silmitasertib -0.041 | entospletinib -0.18

IST1 isoform 2 (UniProt P53990)
inactive: [1] 0.021 | vorinostat -0.055 | silmitasertib -0.044 | [2] -0.033 | entospletinib -0.081

JMJD1C (UniProt Q15652)
inactive: [1] 0.114 | vorinostat -0.089 | silmitasertib -0.016 | [2] 0.006 | entospletinib 0

KCNK1 (UniProt O00180)
inactive: [1] 0.064 | vorinostat -0.247 | silmitasertib -0.071 | entospletinib -0.06

ITGAV (UniProt P06756)
inactive: [1] 0.038 | vorinostat 0.117 | silmitasertib -0.007 | [2] -0.012 | entospletinib -0.012

KDM2A (UniProt Q9Y2K7)
inactive: [1] 0.032 | vorinostat -0.011 | silmitasertib 0.083 | entospletinib -0.046

JMY (UniProt Q8N9B5)
inactive: vorinostat 0.345 | silmitasertib 0.398 | [2] 0

KAZN isoform 3 (UniProt Q674X7)
inactive: vorinostat -0.015 | silmitasertib -0.058 | [2] -0.146

ITGB1BP2 (UniProt Q9UKP3)
inactive: [1] 0.053 | entospletinib 0.107

JOSD1 (UniProt Q15040)
inactive: vorinostat -0.191 | silmitasertib 0.15
